Test results from the supplement of paper PMC4604168 (melanoma cell lines).
The other results are listed elsewhere or left out. Repeats are few or missing, and single values can be far off.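 Cells were imaged in 1,536-well plates, and nuclei stained with an antibody against cleaved PARP were counted against all DNA-stained nuclei to give the apoptosis fraction. Screening doses were chosen to leave most cells alive, and resting and induced cleaved-PARP levels differ strongly between cell lines.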

Key:
Experiment in all cases: cleaved PARP positive nuclei fraction relative to DMSO control; melanoma cells; higher = more apoptosis
Conditions in all cases: library dose: low library concentration; 72 h
MZ2-MEL = system: MZ2-MEL
MeWo = system: MeWo
RPMI7951 = system: RPMI7951
RVH-421 = system: RVH-421
SkMel28 = system: SkMel28
SkMel30 = system: SkMel30
SkMel5 = system: SkMel5
UACC257 = system: UACC257
UACC62 = system: UACC62

Row | SMILES | cleaved PARP positive nuclei fraction (MZ2-MEL) [%] | cleaved PARP positive nuclei fraction (MeWo) [%] | cleaved PARP positive nuclei fraction (RPMI7951) [%] | cleaved PARP positive nuclei fraction (RVH-421) [%] | cleaved PARP positive nuclei fraction (SkMel28) [%] | cleaved PARP positive nuclei fraction (SkMel30) [%] | cleaved PARP positive nuclei fraction (SkMel5) [%] | cleaved PARP positive nuclei fraction (UACC257) [%] | cleaved PARP positive nuclei fraction (UACC62) [%]
1 | CCc1ccc(CCOc2ccc(CC3SC(=O)NC3=O)cc2)nc1 (centres undefined) [pioglitazone] + Cn1cc(/C=C2\C(=O)Nc3cccnc32)c2ccccc21 [GW441756] (first compound 2 µM, partner dose 0.4 µM) | 122 | 78.7 | 40.5 | 54.7 | 65.4 | 10.2 | 62.5 | 99.6 | 116
2 | O=C(O)C(=O)Nc1sc2c(c1C(=O)O)CCNC2 + O=c1cc(-c2cccc3c2Sc2ccccc2S3)oc(N2CCOCC2)c1 [KU55933] (first compound 1.66667 µM, partner dose 1 µM) | 113 | 105 | 77.5 | 117 | 140 | 24.8 | 36.9 | 246 | 631
3 | NCC(=O)Nc1ccc(-n2nc(C(F)(F)F)cc2-c2ccc3c(ccc4ccccc43)c2)cc1 + COc1ccc2c(c1)CCC1C2CCC2(C)C(NCCCCCCN3C(=O)C=CC3=O)CCC12 [U73122] (first compound 1 µM, partner dose 0.4 µM) | 97.6 | 397 | 89.8 | 125 | 225 | 58.5 | 171 | 204 | 89.1
4 | COc1ccc(-c2ccc3c(N4CCOCC4)nc(N4C[C@@H](C)O[C@@H](C)C4)nc3n2)cc1CO + O=C1NC(=O)/C(=C/c2ccc(-c3ccc(F)cc3O)o2)S1 [AS252424] (first compound 0.02 µM, partner dose 1 µM) | 172 | 28.7 | 46.1 | 79.9 | 164 | 17.1 | 118 | 266 | 147
5 | CN(NC(=O)CC(=O)NN(C)C(=S)c1ccccc1)C(=S)c1ccccc1 + O=C(O)C(=O)Nc1sc2c(c1C(=O)O)CCNC2 [TCS401] (first compound 0.006 µM, partner dose 1.66667 µM) | 66.6 | 154 | 36.6 | 96.4 | 83.6 | 64.9 | 223 | 66.4 | 145
6 | CCN(CC)CCCCNc1ncc2cc(-c3cc(OC)cc(OC)c3)c(NC(=O)NC(C)(C)C)nc2n1 + Cc1cc([N+](=O)[O-])ccc1NS(=O)(=O)c1cc(Cl)ccc1Cl [FH535] (first compound 0.1 µM, partner dose 1 µM) | 84.5 | 122 | 77.6 | 87.1 | 158 | 219 | 316 | 192 | 45.7
